Data reported in paper PMC9596381.
Results are given in words; binding and its absence hold for the method and conditions named. Some results given as binding are weak or reduced against the parent protein; the word gives no strength.

Chains of the proteins cited; added tags and fusions are not shown. Lines headed by an entry give the natural chain unless they say otherwise; changes in a name come on top. A line that says so, or that is headed by a name, gives the form on record, which may keep a tag or linker. Residues count along the entry.
UniProt P51654: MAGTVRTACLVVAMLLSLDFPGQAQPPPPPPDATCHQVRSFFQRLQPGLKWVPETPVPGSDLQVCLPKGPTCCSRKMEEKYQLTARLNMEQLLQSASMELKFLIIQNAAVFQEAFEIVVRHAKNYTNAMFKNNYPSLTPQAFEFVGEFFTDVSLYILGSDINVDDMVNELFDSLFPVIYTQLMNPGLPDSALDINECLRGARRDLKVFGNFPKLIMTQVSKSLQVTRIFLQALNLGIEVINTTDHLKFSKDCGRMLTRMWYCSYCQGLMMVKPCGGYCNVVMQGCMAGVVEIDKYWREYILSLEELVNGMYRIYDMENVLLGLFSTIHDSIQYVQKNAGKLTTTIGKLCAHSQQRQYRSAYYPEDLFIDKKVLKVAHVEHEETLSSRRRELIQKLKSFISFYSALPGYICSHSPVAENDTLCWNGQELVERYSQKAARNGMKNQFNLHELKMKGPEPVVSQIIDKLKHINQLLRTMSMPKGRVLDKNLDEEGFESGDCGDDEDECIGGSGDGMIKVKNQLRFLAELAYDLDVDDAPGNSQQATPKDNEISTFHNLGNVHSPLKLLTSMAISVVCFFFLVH
hGPC3^core N241Q mutant (hGPC3^coreUG) (P51654, form named): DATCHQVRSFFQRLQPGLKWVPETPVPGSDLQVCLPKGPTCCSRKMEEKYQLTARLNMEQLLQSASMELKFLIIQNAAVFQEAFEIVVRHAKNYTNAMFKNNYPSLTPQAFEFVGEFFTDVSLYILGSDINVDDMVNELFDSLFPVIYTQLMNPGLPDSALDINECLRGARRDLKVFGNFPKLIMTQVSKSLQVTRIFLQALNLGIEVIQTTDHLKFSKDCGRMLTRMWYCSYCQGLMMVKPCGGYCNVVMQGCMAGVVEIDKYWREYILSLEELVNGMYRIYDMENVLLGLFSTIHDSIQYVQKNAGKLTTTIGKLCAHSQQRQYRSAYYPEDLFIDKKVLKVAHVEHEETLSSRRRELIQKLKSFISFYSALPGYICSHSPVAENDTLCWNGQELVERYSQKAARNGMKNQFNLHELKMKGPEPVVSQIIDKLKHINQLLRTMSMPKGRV
UniProt O08747: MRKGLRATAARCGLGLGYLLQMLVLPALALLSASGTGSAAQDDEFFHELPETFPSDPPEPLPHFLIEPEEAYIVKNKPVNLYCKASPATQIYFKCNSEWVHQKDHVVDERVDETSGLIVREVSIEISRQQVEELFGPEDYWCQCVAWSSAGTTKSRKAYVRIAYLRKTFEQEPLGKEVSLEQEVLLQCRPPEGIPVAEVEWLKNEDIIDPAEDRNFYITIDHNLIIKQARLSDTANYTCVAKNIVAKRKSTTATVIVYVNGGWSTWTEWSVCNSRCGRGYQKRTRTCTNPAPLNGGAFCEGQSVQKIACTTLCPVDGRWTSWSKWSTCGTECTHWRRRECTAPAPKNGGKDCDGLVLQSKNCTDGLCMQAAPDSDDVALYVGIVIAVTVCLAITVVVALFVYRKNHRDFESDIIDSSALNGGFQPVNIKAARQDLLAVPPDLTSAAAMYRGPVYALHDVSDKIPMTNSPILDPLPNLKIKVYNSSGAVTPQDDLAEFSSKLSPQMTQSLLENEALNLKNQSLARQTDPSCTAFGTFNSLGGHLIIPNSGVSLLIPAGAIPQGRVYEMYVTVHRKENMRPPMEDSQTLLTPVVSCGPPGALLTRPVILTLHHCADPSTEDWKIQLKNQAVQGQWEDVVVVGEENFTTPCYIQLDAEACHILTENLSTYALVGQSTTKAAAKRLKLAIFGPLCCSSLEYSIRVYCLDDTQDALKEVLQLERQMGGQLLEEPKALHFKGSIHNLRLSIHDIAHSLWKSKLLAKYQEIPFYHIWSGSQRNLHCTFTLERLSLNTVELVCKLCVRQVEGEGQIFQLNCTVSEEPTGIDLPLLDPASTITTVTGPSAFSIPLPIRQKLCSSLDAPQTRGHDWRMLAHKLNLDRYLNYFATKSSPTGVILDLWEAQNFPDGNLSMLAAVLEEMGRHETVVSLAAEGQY
mouse Unc5C expressed on cells: residues 41-931 of O08747
mouse Unc5C ectodomain: residues 41-380 of O08747
UniProt Q8K1S4, residues 26-359: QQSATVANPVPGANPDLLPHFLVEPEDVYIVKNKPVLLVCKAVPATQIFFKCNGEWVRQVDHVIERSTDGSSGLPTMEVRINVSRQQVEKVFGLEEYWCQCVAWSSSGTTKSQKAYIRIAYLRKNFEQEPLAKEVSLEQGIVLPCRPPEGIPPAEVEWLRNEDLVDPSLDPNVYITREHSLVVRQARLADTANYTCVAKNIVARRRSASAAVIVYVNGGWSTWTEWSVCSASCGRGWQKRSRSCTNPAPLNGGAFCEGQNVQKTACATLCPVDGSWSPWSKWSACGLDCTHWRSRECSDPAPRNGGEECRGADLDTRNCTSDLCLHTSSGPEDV
UniProt Q6ZN44, residues 26-306: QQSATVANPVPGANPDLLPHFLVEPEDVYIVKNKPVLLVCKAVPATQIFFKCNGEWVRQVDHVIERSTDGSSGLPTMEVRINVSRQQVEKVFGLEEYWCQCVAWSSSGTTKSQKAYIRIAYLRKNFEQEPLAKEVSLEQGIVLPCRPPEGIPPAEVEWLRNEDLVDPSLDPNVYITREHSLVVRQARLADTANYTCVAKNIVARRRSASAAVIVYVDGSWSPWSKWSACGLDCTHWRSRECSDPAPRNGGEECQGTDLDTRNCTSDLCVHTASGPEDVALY
UniProt Q6UXZ4, residues 33-379: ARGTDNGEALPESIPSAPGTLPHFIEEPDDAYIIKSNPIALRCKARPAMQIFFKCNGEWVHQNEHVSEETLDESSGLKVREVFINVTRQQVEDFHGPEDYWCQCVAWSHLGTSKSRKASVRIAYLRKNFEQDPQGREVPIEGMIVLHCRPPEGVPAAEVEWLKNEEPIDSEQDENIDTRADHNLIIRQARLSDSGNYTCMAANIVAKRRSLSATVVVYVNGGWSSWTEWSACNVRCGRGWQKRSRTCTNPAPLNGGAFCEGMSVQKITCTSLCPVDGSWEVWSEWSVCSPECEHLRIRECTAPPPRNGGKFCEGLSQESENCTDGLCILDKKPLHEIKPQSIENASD
UniProt Q8IZJ1, residues 27-377: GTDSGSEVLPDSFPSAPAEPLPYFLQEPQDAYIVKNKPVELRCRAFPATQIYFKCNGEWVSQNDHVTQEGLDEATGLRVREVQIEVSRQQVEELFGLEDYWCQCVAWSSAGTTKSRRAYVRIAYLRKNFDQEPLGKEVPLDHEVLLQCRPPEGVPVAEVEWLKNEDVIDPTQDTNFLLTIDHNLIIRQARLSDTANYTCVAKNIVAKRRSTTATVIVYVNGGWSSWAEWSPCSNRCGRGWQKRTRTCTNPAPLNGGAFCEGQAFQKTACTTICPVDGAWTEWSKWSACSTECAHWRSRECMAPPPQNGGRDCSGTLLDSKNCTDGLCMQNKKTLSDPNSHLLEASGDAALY
UniProt Q8CFZ4, residues 31-559: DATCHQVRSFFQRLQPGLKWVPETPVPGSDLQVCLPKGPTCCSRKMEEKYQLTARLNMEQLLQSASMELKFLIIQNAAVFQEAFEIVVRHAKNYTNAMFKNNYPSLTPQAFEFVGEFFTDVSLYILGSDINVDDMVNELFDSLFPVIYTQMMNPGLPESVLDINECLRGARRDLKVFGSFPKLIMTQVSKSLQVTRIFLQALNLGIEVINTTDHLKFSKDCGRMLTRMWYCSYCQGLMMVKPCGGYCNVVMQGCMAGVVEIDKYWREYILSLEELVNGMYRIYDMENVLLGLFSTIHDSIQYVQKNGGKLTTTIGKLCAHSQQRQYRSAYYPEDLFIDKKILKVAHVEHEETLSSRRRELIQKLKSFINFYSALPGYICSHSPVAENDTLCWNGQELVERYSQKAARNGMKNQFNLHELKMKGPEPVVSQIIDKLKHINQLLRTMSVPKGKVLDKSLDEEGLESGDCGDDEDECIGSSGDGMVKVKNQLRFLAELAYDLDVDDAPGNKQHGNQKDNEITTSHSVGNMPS

Assays:
[1] = target: biotinylated hGPC3^core (residues 32-483) coupled to streptavidin agarose (human) (UniProt P51654); test: pull-down; biotinylated hGPC3^core on streptavidin agarose; hUnc5B^Ecto mixed with nanobody at 1:1, 1:5 and 1:10 molar ratios in 20 mM Tris-HCl pH 7.5, 200 mM NaCl, 1% BSA, 3 h; SDS-PAGE; both purified
[2] = target: mouse Unc5C ectodomain (mouse) (UniProt O08747); test: SPR; Unc5A-D ectodomains immobilised; hGPC3^core or mGPC3^ecto injected in a 2-fold dilution series (top 4.5 uM) with Fc control protein, Nano^glue or Nano^break kept constant at 9 uM (with hGPC3^core) or 4.5 uM (with mGPC3^ecto); both purified
[3] = target: mouse Unc5C expressed on cells (mouse) (UniProt O08747); test: cell-based binding assay (fluorescence microscopy); HEK293T cells expressing mVenus-tagged receptor; 0.5 ug purified His-tagged protein pre-clustered with anti-His, 60 min on ice; anti-mouse-Cy3; co-localisation area quantified; only the binder purified
[4] = target: mouse Unc5A ectodomain, residues 1-359 (mUnc5A^ecto) (mouse) (UniProt Q8K1S4); test: SPR; equilibrium binding at 25 C, Biacore T200; one partner biotinylated at a C-terminal Avi-tag on a streptavidin-coated CM5 chip; analyte in 2-fold dilution series; PBS or 20 mM Tris, 200 mM NaCl, 0.005% polysorbate 20, pH 7.5; apparent KD from a 1:1 model, indicative only; both purified
[5] = target: mouse Unc5C ectodomain (mouse) (UniProt O08747); test: as above
[6] = target: human Unc5A isoform 1 ectodomain, lacking TSP1 (hUnc5A^iso1) (human) (UniProt Q6ZN44); test: as above
[7] = target: human Unc5D (residues 33-379) alkaline phosphatase fusion (Unc5D-AP) (human) (UniProt Q6UXZ4); test: ELISA; Unc5D-AP conditioned medium captured by anti-AP in 96-well plates as bait; culture medium of 95 ecto-Fc prey proteins added with anti-human IgG1-HRP; 4 h at room temperature; absorbance at 650 nm; in duplicate

Substance | binding [2] | binding [3] | binding [5] | also measured
human Unc5B ectodomain (hUnc5B^ecto) (from UniProt Q8IZJ1 27-377) (domain or fragment) |  |  |  | binding [1]: binds
murine GPC3 ectodomain, residues 31-559 (mGPC3^ecto) (from UniProt Q8CFZ4 31-559) (domain or fragment) | binds |  |  | 
human GPC3 (residues 25-563) Fc-tagged prey (from UniProt P51654 25-563) (Fc fusion) |  |  |  | binding [7]: binds

Continued, in another order:

binding [2] | binding [3] | binding [5] | Substance | also measured
 | no binding | no binding | hGPC3^core N241Q mutant (hGPC3^coreUG) (from UniProt P51654 32-483) (domain or fragment) | binding [4]: no binding
binds | binds | binds | human glypican-3 core domain, residues 32-483 (hGPC3^core) (from UniProt P51654 32-483) (domain or fragment) | binding [6]: no binding
